Reference: PubChem BioAssay AID445 (National Center for Advancing Translational Sciences (NCATS), 2006)
The list shows a part of the results. Shown are side measurements of this screen, not its main read-out; they come without a call. The list favours compounds with an active or inconclusive main result. Potencies come from curve fits of mixed quality, noted in brackets.

Assay: IkB Signaling
Details: ABC-DLBCL IkBa-CBG/CBR dual luciferase ratio (green luciferase fused to IkBa over red control in OCI-Ly3 lymphoma cells), 4 h
Method in brief: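 Luminescence ratio of IκBα-fused green versus native red beetle luciferase in OCI-Ly3 cells, 4 h post-doxycycline with compound; red signal alone, scaled from basal (0%) to zero light (-100%), flagged nonspecific or cytotoxic effects.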

[1] = measured here: control luc red channel unless noted
[2] = measured here: IkB-luc green channel
[3] = measured here: control luc red channel

Structure (SMILES): CCOC(=O)C1=C(C)NC(=O)NC1c1cn(-c2ccccc2)nc1-c1ccc(OCC)cc1 (stereo not drawn)
- AC50 [1]: 25.1 µM [falling, partial curve]

Structure (SMILES): CCCCOc1cccc(C(=O)Nc2cccc(-c3nc4ncccc4o3)c2C)c1
- AC50 [1]: 10 µM [falling, partial curve]

Structure (SMILES): Cc1ccc(NC(=O)C2CCCN(c3ncnc4onc(-c5ccc(F)cc5)c34)C2)c(Cl)c1 (stereo not drawn)
- AC50 [1]: 20 µM [falling, partial curve]

Structure (SMILES): CCC(C)NC(=O)Cn1ccc2cc(S(=O)(=O)N3CCCCC3)ccc21 (stereo not drawn)
- AC50 [1]: 6.31 µM [rising, single point]

Structure (SMILES): CC(C)c1ccc2oc(-c3ccc(NC(=O)c4ncn[nH]4)cc3)nc2c1
- AC50 [1]: 0.2 µM [falling, full curve]

Structure (SMILES): Cc1ccc(-n2c(Cc3cccn3C)nnc2SCC(=O)Nc2ccc3c(c2)OCO3)cc1
- AC50 [1]: 20 µM [falling, partial curve]

Structure (SMILES): Cc1cccc(N2CCN(C(=O)CN3C(=O)COc4ccc(S(=O)(=O)N5CCCCCC5)cc43)CC2)c1C
- AC50 [1]: 12.6 µM [falling, partial curve]

Structure (SMILES): C=CCn1c(SCC(=O)Nc2ccc(C(=O)OCC)cc2)nnc1-c1sc(N)nc1C
- AC50 [1]: 12.6 µM [falling, partial curve]

Structure (SMILES): Cc1nc(N2CCOCC2)c2c(C(=O)NCCc3ccccc3)c(C)oc2n1
- AC50 [1]: 10 µM [rising, partial curve]

Structure (SMILES): CCCCn1cc2c(c1-c1ccccc1Br)c(=O)n(C)c(=O)n2C
- AC50 [1]: 25.1 µM [falling, single point]

Structure (SMILES): Cc1ccc(C(=O)n2nc(-c3ccco3)nc2NCc2cccs2)cc1
- AC50 [1]: 6.31 µM [rising, single point]

Structure (SMILES): COc1cccc(-n2c(-c3ccc(Cl)cc3)cc3c2CC(C)(C)CC3=O)c1
- AC50 [1]: 15.8 µM [falling, partial curve]

Structure (SMILES): COc1cc2c(=O)n(Cc3ccccc3Cl)c(=O)n(CC(=O)Nc3ccccc3)c2cc1OC
- AC50 [1]: 15.8 µM [falling, partial curve]

Structure (SMILES): Cc1cc2cc(CN(Cc3ccc4c(c3)OCO4)C(=O)c3cnccn3)c3nnnn3c2cc1C
- AC50 [1]: 39.8 µM [falling, single point]

Structure (SMILES): CC(C)C(=O)N1CCN(c2ccccc2N)CC1
- AC50 [1]: 3.98 µM [falling, partial curve]

Structure (SMILES): Cc1ccc(-c2nnc(SCC(=O)NC3CCCC3)nc2-c2ccc(C)cc2)cc1
- AC50 [1]: 25.1 µM [falling, partial curve]

Structure (SMILES): O=C(Cc1cc(=O)[nH]c(=O)[nH]1)NCC1CCCO1 (stereo not drawn)
- AC50 [2]: 3.16 µM [falling, full curve]
- AC50 [3]: 0.631 µM [falling, full curve]

Structure (SMILES): COC(=O)c1ccccc1NS(=O)(=O)c1ccc2c3c(cccc13)C(=O)N2
- AC50 [1]: 20 µM [falling, single point]

Structure (SMILES): Cc1ccccc1Nc1sc(C(=O)c2ccccc2)c(N)c1C(=O)NCc1ccc(Cl)cc1
- AC50 [1]: 2.51 µM [falling, full curve, poor fit]

Structure (SMILES): CCOC(=O)C1CCN(S(=O)(=O)c2cc3c4c(c2)CC(=O)N4CCC3)CC1
- AC50 [1]: 10 µM [rising, partial curve]

Structure (SMILES): CN(C)S(=O)(=O)n1cc(/C=C(\NC(=O)c2ccccc2Cl)C(=O)NCCCn2ccnc2)c2ccccc21
- AC50 [1]: 12.6 µM [falling, partial curve]

Structure (SMILES): O=C(Nc1ccc2c(c1)oc1ccccc12)N1CCOCC1
- AC50 [1]: 39.8 µM [falling, single point]

Structure (SMILES): COc1cccc(C(=O)N2c3nc(-c4ccco4)nn3C3(CCCCC3)[C@@H]3CCCC[C@@H]32)c1
- AC50 [1]: 20 µM [falling, single point]

Structure (SMILES): CCc1nn(C(C)C(=O)N2CCN(c3cccc(C(F)(F)F)c3)CC2)c(=O)c2cc3occc3n12 (stereo not drawn)
- AC50 [1]: 12.6 µM [falling, partial curve]

Structure (SMILES): CCCNC(=O)c1c(C)nn(-c2cccc(C)c2)c1-n1cccc1
- AC50 [1]: 15.8 µM [falling, single point]

Structure (SMILES): CCN(CC)c1nc2c(-c3cccc(Br)c3)nnn2c2ccccc12
- AC50 [1]: 0.00794 µM [falling, full curve]

Structure (SMILES): CCN1CCN(C(c2ccc(OC)cc2)c2c(O)cc(C)n(Cc3ccco3)c2=O)CC1 (stereo not drawn)
- AC50 [1]: 31.6 µM [falling, single point]

Structure (SMILES): COc1ccc(CNC(=O)c2ccc(NC(=O)N3CC4CCCN4c4ccccc43)cc2)cc1 (stereo not drawn)
- AC50 [1]: 7.94 µM [falling, partial curve]

Structure (SMILES): COc1cccc(NC(=O)C2CCN(S(=O)(=O)c3cccc4nonc34)CC2)c1
- AC50 [1]: 15.8 µM [falling, single point]

Structure (SMILES): Cc1ccc(-n2ncc(C(=O)NCCc3ccccc3)c2C2CCN(C(=O)OC(C)(C)C)CC2)c(C)c1
- AC50 [1]: 15.8 µM [falling, partial curve]

Structure (SMILES): Cc1nc(-c2ccc(S(=O)(=O)Nc3ccc(C#N)cc3)cc2)co1
- AC50 [1]: 1 µM [rising, full curve]

Structure (SMILES): COC(=O)c1ccc(NC(=O)CSc2nc(C)cc(C)c2C(=O)Nc2ccccc2)cc1
- AC50 [1]: 15.8 µM [falling, partial curve]

Structure (SMILES): CCOc1ccc(/C=C/C(=O)Nc2sc3c(c2C(=O)OC)C(C(=O)OC)CC3)cc1 (stereo not drawn)
- AC50 [1]: 31.6 µM [rising, single point] [measured here: IkB-luc green channel]

Structure (SMILES): CCOC(=O)c1cc(C)n(CC2CCC(C(=O)Nc3ccc(C(C)=O)cc3)CC2)c1C (stereo not drawn)
- AC50 [1]: 12.6 µM [falling, partial curve]

Structure (SMILES): COc1ccc(N2CCN(C(=O)c3cccc(-n4c(C)nc5cccnc54)c3)CC2)cc1
- AC50 [1]: 39.8 µM [falling, single point]

Structure (SMILES): COc1cc2cc(CNc3ccccc3)c(=O)n(CC(=O)Nc3ccccc3)c2cc1OC
- AC50 [1]: 31.6 µM [falling, single point]

Structure (SMILES): Cc1c(C(=O)NCc2ccccc2)oc2ccc(S(=O)(=O)N3CCC4(CC3)OCCO4)cc12
- AC50 [1]: 12.6 µM [falling, partial curve]

Structure (SMILES): CCCNS(=O)(=O)c1ccc2nc(NC(=O)c3ccc(F)cc3)sc2c1
- AC50 [1]: 6.31 µM [falling, partial curve]

Structure (SMILES): CSc1ccc(CNC(=O)C2CCCN(S(=O)(=O)N(C)c3ccc(F)cc3)C2)cc1 (stereo not drawn)
- AC50 [1]: 12.6 µM [falling, partial curve]

Structure (SMILES): CCc1ccc2c(c1)c(=O)c(S(=O)(=O)c1ccc(Cl)cc1)cn2CC
- AC50 [1]: 31.6 µM [falling, single point]

Structure (SMILES): O=C(CC1(O)C(=O)N(CCc2ccccc2)c2ccc(Br)cc21)c1ccc(F)cc1 (stereo not drawn)
- AC50 [1]: 15.8 µM [falling, partial curve]

Structure (SMILES): O=C1c2ccccc2C(Nc2ccc(F)c(Cl)c2)N1c1ccccn1 (stereo not drawn)
- AC50 [1]: 12.6 µM [falling, partial curve]

Structure (SMILES): Nc1c(C(=O)NCc2ccc(Cl)cc2Cl)nnn1Cc1ccc(Br)cc1
- AC50 [1]: 10 µM [falling, partial curve]

Structure (SMILES): COC(=O)c1ccc(NC(=O)CN2CCN(c3cccc(Cl)c3)CC2)cc1
- AC50 [1]: 25.1 µM [falling, partial curve]

Structure (SMILES): CCn1c(SCCOc2ccc(Cl)cc2)nnc1-c1cccs1
- AC50 [1]: 39.8 µM [falling, single point]

Structure (SMILES): O=C1c2ccccc2C(=O)N1CCSc1nnc(-c2ccco2)n1Cc1ccccc1
- AC50 [1]: 10 µM [falling, partial curve]

Structure (SMILES): Cc1ccc(S(=O)(=O)NCC2CCC(C(=O)NCc3ccc(F)cc3)CC2)cc1 (stereo not drawn)
- AC50 [1]: 15.8 µM [falling, partial curve, poor fit]

Structure (SMILES): CCn1c(SCC(=O)N2CCCc3ccccc32)nnc1-c1c[nH]c2ccccc12
- AC50 [1]: 15.8 µM [falling, partial curve]

Structure (SMILES): C#CCSc1nnc(-c2cccc3ccccc23)o1
- AC50 [1]: 0.631 µM [rising, full curve, poor fit]

Structure (SMILES): COc1ccc(-c2nc3ccccc3n3c(-c4cccc(C)c4)c4c(=O)n(C)c(=O)n(C)c4c23)cc1
- AC50 [1]: 2.51 µM [falling, partial curve]

Structure (SMILES): O=C(CN1C(=O)C2CCCCN2c2ccc(C(=O)N3CCCC3)cc21)NCc1ccccc1 (stereo not drawn)
- AC50 [1]: 10 µM [falling, partial curve]

Structure (SMILES): COC(=O)c1ccccc1NC(=O)CSc1nc2sc3c(c2c(=O)[nH]1)CCCC3
- AC50 [2]: 39.8 µM [rising, single point]
- AC50 [3]: 31.6 µM [rising, single point]

Structure (SMILES): CC(=O)NC(=O)NC1OC(=O)C(Cl)=C1Cl (stereo not drawn)
- AC50 [1]: 39.8 µM [rising, partial curve] [measured here: IkB-luc green channel]

Structure (SMILES): COc1ccccc1CNc1nc(-c2ccco2)nn1C(=O)c1ccccc1[N+](=O)[O-]
- AC50 [1]: 20 µM [falling, single point]

Structure (SMILES): CCOc1ccc(NS(=O)(=O)c2ccc3[nH]c(=O)oc3c2)cc1
- AC50 [1]: 15.8 µM [falling, partial curve]

Structure (SMILES): COc1ccc(-c2cc(C(F)(F)F)nc(S(=O)(=O)CCCC(=O)Nc3ccccc3C(F)(F)F)n2)cc1OC
- AC50 [1]: 6.31 µM [falling, partial curve]

Structure (SMILES): COc1ccc(S(=O)(=O)N2Cc3ccccc3CC2C(=O)Nc2cccc(C)c2)cc1OC (stereo not drawn)
- AC50 [1]: 15.8 µM [falling, partial curve]

Structure (SMILES): Cc1cc(=O)n2c(C(=O)Nc3ccc(C)c(C)c3)c(C(=O)Nc3ccccc3)sc2n1
- AC50 [1]: 3.98 µM [falling, full curve]

Structure (SMILES): c1cc(Nc2ncnc3sccc23)cc(-c2nnc3n2CCCCC3)c1
- AC50 [1]: 25.1 µM [falling, single point]

Structure (SMILES): CCN(C(=O)CSc1nnc(-c2ccc(Cl)cc2)o1)c1ccccc1
- AC50 [1]: 5.01 µM [falling, partial curve]

Structure (SMILES): O=C(CSc1nc(-c2ccco2)nc2cc(=O)[nH]n12)Nc1ccccc1Cl
- AC50 [1]: 20 µM [falling, partial curve]
